Measurements published in the supplement of paper PMC10060354, “Discovery of a small molecule ligand of FRS2 that inhibits invasion and tumor growth” (Cellular Oncology, 2022).
Single values are uncertain, as repeats are few or missing.

Amino acid sequences for entries named in this document (tags omitted). A change or cut given only in a name is not applied to a line headed by its entry.
UniProt Q96T76: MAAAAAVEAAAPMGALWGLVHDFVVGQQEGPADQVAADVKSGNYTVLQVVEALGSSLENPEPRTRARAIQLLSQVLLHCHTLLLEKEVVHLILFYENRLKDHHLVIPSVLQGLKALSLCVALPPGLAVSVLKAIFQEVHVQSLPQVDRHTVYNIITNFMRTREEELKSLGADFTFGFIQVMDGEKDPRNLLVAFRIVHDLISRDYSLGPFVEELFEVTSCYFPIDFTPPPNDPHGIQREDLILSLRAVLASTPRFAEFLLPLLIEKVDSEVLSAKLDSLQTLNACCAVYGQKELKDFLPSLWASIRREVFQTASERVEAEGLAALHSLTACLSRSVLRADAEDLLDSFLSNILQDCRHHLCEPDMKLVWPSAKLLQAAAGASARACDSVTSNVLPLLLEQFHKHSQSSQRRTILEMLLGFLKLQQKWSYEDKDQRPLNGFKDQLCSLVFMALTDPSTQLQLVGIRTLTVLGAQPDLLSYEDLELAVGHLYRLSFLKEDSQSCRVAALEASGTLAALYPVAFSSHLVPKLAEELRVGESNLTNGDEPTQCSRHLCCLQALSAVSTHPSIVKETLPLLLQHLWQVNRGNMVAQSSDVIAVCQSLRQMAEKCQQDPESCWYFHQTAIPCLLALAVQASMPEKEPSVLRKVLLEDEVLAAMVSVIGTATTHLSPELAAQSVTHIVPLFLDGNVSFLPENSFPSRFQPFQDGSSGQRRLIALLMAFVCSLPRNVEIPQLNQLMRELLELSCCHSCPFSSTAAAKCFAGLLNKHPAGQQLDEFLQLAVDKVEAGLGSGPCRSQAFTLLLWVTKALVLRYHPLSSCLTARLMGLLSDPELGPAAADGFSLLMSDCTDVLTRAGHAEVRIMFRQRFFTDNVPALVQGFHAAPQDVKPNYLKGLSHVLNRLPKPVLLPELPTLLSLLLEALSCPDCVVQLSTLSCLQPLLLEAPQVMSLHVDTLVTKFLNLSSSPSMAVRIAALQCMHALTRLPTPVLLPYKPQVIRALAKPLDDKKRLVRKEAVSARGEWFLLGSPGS
UniProt Q8N988: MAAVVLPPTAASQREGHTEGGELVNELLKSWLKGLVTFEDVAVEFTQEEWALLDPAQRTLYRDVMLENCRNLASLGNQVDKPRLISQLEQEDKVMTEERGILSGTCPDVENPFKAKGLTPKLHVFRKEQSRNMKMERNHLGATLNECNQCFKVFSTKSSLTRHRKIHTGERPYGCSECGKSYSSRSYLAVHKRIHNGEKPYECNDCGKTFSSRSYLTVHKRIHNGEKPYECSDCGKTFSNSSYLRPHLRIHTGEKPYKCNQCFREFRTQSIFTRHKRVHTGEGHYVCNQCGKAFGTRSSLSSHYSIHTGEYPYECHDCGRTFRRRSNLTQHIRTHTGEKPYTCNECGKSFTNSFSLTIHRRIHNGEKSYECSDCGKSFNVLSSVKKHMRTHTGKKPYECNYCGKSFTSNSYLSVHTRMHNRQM
UniProt P07686: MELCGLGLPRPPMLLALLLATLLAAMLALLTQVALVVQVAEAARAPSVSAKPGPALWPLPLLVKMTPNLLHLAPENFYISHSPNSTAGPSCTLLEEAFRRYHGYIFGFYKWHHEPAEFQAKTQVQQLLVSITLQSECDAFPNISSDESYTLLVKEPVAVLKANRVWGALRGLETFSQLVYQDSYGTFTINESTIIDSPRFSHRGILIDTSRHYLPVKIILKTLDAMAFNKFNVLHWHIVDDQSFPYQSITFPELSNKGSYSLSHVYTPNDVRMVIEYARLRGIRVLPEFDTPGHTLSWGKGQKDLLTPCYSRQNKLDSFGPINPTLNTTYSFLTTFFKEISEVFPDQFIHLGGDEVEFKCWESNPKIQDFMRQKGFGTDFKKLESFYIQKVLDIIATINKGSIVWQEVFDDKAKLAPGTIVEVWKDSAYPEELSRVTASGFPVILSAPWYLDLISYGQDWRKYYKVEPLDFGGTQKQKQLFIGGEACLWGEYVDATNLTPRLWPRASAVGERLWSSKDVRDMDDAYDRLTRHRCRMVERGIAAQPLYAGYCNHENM
UniProt Q9BVC5: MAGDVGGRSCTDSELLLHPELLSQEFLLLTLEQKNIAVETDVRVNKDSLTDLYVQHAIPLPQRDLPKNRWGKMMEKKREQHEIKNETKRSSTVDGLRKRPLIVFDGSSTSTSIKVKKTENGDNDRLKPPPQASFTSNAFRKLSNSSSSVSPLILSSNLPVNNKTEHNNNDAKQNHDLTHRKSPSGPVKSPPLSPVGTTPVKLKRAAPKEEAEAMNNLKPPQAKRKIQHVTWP
UniProt O75494: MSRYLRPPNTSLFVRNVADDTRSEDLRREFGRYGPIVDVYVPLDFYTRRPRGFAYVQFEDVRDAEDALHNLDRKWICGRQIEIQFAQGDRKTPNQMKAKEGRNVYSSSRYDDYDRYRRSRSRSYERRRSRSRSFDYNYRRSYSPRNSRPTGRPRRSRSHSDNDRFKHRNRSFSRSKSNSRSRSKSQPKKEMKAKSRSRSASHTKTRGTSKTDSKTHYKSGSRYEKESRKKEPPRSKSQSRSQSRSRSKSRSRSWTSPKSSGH
UniProt Q9NZW5: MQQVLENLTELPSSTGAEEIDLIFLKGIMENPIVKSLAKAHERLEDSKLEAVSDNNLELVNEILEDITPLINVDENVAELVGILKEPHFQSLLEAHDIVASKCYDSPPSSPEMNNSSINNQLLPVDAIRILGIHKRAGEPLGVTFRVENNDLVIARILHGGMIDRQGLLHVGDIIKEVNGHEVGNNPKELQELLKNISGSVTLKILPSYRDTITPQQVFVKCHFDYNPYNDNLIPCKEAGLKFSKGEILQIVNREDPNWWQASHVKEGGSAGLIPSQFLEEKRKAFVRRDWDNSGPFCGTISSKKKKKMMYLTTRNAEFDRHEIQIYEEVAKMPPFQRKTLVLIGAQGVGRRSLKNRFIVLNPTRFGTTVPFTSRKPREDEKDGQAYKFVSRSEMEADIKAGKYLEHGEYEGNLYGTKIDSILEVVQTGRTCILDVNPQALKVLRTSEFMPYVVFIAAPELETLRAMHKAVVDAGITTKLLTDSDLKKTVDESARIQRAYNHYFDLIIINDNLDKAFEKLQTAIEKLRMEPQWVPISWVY
UniProt Q96I24: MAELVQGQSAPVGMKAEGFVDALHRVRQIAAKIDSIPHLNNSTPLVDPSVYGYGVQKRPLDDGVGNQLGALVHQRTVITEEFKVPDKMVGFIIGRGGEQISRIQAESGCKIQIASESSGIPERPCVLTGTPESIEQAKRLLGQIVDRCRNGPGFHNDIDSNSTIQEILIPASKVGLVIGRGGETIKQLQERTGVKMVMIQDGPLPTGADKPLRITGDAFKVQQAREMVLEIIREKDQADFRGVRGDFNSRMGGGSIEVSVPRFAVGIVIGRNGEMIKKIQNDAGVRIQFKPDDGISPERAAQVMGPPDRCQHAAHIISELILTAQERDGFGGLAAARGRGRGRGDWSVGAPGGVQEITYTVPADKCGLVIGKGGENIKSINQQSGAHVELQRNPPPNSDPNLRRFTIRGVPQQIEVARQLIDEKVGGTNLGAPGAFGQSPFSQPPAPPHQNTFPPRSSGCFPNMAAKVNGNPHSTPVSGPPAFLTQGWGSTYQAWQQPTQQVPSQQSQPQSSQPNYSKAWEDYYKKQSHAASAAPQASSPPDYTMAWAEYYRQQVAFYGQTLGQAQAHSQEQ
UniProt Q9H4E7, whole entry: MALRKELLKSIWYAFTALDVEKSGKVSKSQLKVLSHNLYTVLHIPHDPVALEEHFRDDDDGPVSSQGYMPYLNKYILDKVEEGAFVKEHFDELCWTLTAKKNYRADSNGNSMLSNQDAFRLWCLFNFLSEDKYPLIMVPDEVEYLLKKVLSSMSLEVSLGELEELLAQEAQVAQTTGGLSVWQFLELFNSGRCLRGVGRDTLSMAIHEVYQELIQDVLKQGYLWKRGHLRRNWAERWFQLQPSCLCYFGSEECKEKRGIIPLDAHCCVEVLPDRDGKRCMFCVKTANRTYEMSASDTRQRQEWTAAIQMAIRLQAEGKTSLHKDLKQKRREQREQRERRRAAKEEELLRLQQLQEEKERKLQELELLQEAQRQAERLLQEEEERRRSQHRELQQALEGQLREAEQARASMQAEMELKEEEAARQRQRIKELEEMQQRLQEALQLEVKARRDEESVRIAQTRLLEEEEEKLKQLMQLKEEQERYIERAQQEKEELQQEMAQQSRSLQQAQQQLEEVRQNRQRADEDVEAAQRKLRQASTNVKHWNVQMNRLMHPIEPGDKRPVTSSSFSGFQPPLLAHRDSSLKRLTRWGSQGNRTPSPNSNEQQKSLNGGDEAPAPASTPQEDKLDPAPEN
UniProt Q9BQ67, whole entry: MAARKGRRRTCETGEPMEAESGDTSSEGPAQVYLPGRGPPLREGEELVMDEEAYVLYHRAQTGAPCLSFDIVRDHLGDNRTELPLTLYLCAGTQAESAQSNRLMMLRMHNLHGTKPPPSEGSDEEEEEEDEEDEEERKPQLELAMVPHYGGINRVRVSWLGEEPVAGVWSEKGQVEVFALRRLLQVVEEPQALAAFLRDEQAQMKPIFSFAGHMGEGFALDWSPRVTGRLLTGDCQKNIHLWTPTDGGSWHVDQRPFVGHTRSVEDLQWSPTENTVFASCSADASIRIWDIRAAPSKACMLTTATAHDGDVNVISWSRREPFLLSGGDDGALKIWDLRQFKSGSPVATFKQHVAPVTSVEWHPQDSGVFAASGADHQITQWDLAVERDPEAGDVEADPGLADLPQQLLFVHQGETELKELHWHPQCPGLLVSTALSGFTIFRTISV
UniProt O15116: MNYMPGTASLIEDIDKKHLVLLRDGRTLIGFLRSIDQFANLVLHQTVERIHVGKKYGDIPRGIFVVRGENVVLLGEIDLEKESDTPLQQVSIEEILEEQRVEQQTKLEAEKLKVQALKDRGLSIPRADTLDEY
UniProt Q15819: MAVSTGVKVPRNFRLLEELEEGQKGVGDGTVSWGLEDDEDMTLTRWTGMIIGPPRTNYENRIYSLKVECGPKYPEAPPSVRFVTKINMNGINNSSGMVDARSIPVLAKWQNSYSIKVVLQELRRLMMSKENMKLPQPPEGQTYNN
UniProt P21399: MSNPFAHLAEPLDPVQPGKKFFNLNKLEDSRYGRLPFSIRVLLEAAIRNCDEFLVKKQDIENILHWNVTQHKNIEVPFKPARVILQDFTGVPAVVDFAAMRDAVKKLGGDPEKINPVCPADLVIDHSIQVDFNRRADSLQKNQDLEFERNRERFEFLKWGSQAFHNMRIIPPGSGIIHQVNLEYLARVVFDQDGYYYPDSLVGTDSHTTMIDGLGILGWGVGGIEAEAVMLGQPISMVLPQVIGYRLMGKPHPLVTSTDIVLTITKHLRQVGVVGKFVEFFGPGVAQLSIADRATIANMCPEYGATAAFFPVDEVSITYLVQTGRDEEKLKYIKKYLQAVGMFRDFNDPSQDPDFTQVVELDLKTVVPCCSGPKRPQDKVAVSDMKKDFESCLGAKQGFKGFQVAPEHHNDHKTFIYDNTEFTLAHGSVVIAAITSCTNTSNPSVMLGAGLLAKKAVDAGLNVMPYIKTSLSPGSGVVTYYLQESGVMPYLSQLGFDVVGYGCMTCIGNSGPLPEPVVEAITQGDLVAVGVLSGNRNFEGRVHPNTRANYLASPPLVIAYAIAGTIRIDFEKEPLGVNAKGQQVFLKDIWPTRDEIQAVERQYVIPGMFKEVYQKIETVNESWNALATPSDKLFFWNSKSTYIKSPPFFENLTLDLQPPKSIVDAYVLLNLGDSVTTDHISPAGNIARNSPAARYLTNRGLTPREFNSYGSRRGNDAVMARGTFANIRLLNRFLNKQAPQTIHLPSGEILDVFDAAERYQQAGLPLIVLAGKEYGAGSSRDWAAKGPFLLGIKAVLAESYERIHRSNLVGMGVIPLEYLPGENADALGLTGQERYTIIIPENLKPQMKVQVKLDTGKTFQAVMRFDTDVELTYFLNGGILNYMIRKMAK
UniProt P08758: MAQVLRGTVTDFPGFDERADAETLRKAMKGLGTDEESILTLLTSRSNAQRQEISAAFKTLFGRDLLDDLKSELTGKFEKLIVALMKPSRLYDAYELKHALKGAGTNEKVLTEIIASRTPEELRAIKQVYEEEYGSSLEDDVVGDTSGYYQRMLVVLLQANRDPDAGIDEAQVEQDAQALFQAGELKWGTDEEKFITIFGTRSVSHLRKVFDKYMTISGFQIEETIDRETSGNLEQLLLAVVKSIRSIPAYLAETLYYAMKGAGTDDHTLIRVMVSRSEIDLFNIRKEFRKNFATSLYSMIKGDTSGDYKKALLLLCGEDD
UniProt Q6PK04: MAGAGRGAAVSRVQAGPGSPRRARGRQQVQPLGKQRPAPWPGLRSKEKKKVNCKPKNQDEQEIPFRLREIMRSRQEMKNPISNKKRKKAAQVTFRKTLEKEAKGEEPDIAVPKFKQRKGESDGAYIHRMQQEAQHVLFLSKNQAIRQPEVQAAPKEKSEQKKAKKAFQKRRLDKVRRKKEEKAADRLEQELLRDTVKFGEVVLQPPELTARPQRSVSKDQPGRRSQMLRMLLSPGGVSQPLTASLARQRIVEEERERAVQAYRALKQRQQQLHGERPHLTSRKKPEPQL
UniProt Q9UDW1: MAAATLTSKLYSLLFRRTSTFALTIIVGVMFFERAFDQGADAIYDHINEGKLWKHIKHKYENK

Compound: [O-][N+](C(C1=C(C(O)=C2)NC(C(C=C3)=CC=C3Cl)C4C1C=CC4)=C2Cl)=O
Assay: melting temperature shift (compound 7 minus DMSO); higher = compound stabilises the protein
Conditions: 10 µM
Protocol: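 Thermal proteome profiling (TMT mass spectrometry) in intact DAOY medulloblastoma cells or DAOY lysates treated with 10 µM compound 7 or DMSO, heated at 10 temperatures from 40.5 to 73.8 °C for 3 min. Melting curves were fitted with the Bioconductor TPP package, and the melting point difference between compound and vehicle is reported per protein (single curve per condition).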

[1] = system: DAOY cell lysate, treatment time: 20 min, 4 °C
[2] = system: intact DAOY cells, treatment time: 90 min, 37 °C

| Target | melting temperature shift [1] [°C] | melting temperature shift [2] [°C] |
| --- | --- | --- |
| VDAC3 (UniProt Q9Y277) | 2.57 | -0.539 |
| MMS19 (UniProt Q96T76) | -0.393 | -0.00615 |
| ITCH (UniProt Q96J02) | 0.271 | 0.751 |
| BAG4 (UniProt O95429) | -2.35 | -3.57 |
| UniProt Q5TCQ9 | 0.116 | – |
| TRIM28 (UniProt Q13263) | -0.687 | 0.179 |
| MPP5 (UniProt Q8N3R9) | -1.39 | 0.121 |
| CPPED1 (UniProt Q9BRF8) | – | -0.542 |
| PAPSS1 (UniProt O43252) | -0.256 | -0.429 |
| MAP3K7 (UniProt O43318) | -0.685 | -1.45 |
| SPRYD7 (UniProt Q5W111) | 0.872 | -0.678 |
| UniProt Q8N988 | 0.174 | – |
| HEXB (UniProt P07686) | -0.288 | -1.31 |
| SCCPDH (UniProt Q8NBX0) | 1.62 | -1.59 |
| USP25 (UniProt Q9UHP3) | – | -1.18 |
| UniProt Q4LDG9 | -0.559 | -0.172 |
| CDK5RAP2 (UniProt Q96SN8) | -0.895 | 3.15 |
| UniProt P0DPD7 | -0.143 | – |
| PRPF18 (UniProt Q99633) | 1.46 | – |
| WDR1 (UniProt O75083) | -0.225 | 1.17 |

| Target | melting temperature shift [1] [°C] | melting temperature shift [2] [°C] |
| --- | --- | --- |
| C2ORF49 (UniProt Q9BVC5) | -4.99 | – |
| UniProt Q9UKI2 | -2.28 | – |
| UniProt Q5TAP6 | – | -1.54 |
| UniProt Q96ME7 | 0.305 | – |
| TMEM57 (UniProt Q8N5G2) | -0.196 | -0.657 |
| SRSF10 (UniProt O75494) | 0.157 | -0.273 |
| AGL (UniProt P35573) | 0.0414 | -0.0942 |
| UniProt Q16777 | – | -1.11 |
| EZH2 (UniProt Q15910) | -1.68 | – |
| UniProt P07947 | 1.94 | 0.599 |
| SPDL1 (UniProt Q96EA4) | -0.986 | 1.22 |
| UniProt Q9NZW5 | 1.29 | -0.422 |
| DDX3X (UniProt O00571) | 0.339 | 0.553 |
| FBXL18 (UniProt Q96ME1) | -0.0779 | -1.63 |
| FUBP3 (UniProt Q96I24) | 0.933 | -0.48 |
| MYH9 (UniProt P35579) | -0.416 | -0.6 |
| ARAP1 (UniProt Q96P48) | 0.143 | -0.753 |
| CFAP36 (UniProt Q96G28) | -0.967 | – |
| UniProt Q9H4E7 | -2.8 | – |
| ATIC (UniProt P31939) | -0.346 | -1.03 |

| Target | melting temperature shift [1] [°C] | melting temperature shift [2] [°C] |
| --- | --- | --- |
| CCDC43 (UniProt Q96MW1) | 0.685 | -0.0807 |
| ZFC3H1 (UniProt O60293) | 0.19 | – |
| ROCK2 (UniProt O75116) | -0.0651 | -0.25 |
| GRWD1 (UniProt Q9BQ67) | -0.134 | 0.589 |
| TCF3 (UniProt P15923) | 0.628 | – |
| LSM1 (UniProt O15116) | 0.202 | 0.888 |
| ABCB8 (UniProt Q9NUT2) | -1.78 | -2.18 |
| CST3 (UniProt P01034) | 3.46 | – |
| UBE2V2 (UniProt Q15819) | -1.33 | -0.506 |
| ACO1 (UniProt P21399) | -0.309 | -0.317 |
| TFCP2 (UniProt Q12800) | 1.06 | 0.364 |
| FH (UniProt P07954) | 0.175 | -0.285 |
| ANXA5 (UniProt P08758) | -0.149 | 0.0543 |
| CCDC137 (UniProt Q6PK04) | 0.702 | – |
| UniProt O95399 | – | -0.178 |
| RPP38 (UniProt P78345) | -1.45 | -0.426 |
| UQCR10 (UniProt Q9UDW1) | 1.08 | -0.849 |
| KCTD3 (UniProt Q9Y597) | 1.05 | – |
